This passage reports mTLR9 reporter activity results from the supplement of paper PMC6924143.

The data scatter; read single values as rough.

This series deals with RAW-Blue (mouse TLR9 reporter, RAW 264.7). The experiment in a line: mTLR9 reporter activity (SEAP, QUANTI-Blue absorbance) (OD650); higher = stronger mouse TLR9 activation. Particulars: 3 h. As for the experimental part: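 Synthetic single-stranded 24-mer CpG ODNs were diluted in saline and added to mouse RAW-Blue cells (RAW 264.7 with an NF-kB/AP-1-inducible SEAP reporter; endogenous mouse TLR9), about 1e5 cells/well. After 3 h, SEAP in the supernatant was read with QUANTI-Blue as absorbance at 650 nm. ODN concentration and backbone chemistry are not stated; activity of 0.4 or above is the paper's high-activity class.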

As to TCTCCGTTACGCGGCGCAGGACTT [mODN064], the mTLR9 reporter activity was 0.26.

For TCTCGACGTCGTGCGTCTGTGTGT [ODN171], the mTLR9 reporter activity is 0.153.

With TCTCGCAGTTCCGCGCTTAGCGGT [mODN77], the mTLR9 reporter activity amounted to 0.43.

TCTCGCGACGCAGCGCGAGCGATT [ODN091] returned a mTLR9 reporter activity of 0.155.

TCTCTGGACGGCGTTCGGCGCCTT [mODN98] yielded a mTLR9 reporter activity of 0.57.

For the sequence TCTGAGCGACGTTGTCGACGAGTT [ODN072], the mTLR9 reporter activity amounted to 0.183.

Sequence TCTGTCGCGCGTCGAGTTTCGCTT [ODN247] gave a mTLR9 reporter activity of 0.286.

Sequence TCTGTCTGTCGCGTGTACGTTCGT [ODN209] gave a mTLR9 reporter activity of 0.135.

For the sequence TCTGTTCGTCTATTGTGCGCGCGT [ODN189], the mTLR9 reporter activity was found to be 0.084.

In turn, TCTTCGACGCGCCGGTGGCGTTCT [mODN051] yielded a mTLR9 reporter activity of 0.28.

The sequence TCTTCGCGCTTCGTCGCGTGACGT [ODN221] had a mTLR9 reporter activity of 0.165.

TCTTCGCGTCGTGCGCGCTCGTGT [ODN177]: the mTLR9 reporter activity was 0.091.

On to TCTTCGCGTGAGTCGCGTTTGTGT [ODN192], for which the mTLR9 reporter activity is 0.152.

With TCTTCGGTCGGCTTACGGCGACCA [mODN065], the mTLR9 reporter activity amounted to 0.36.

TCTTGCGCGCTATGTCGCGTTGTT [ODN184] gave a mTLR9 reporter activity of 0.115.

As to TCTTGCGGATCCCGGTTCACGCCG [mODN032], the mTLR9 reporter activity turned out to be 0.25.

Sequence TCTTGCGGCGTATACTTCGCCGCG [mODN-016] showed a mTLR9 reporter activity of 0.36.

For the sequence TCTTGCGTTGCGCGTCTTACGCGT [ODN244], the mTLR9 reporter activity came out at 0.232.

TCTTTCGACCGGGGTTCCCGCGAT [mODN80] had a mTLR9 reporter activity of 0.44.

Sequence TCTTTTGAGTTTTTGCGTGCGCGT [ODN045] showed a mTLR9 reporter activity of 0.238.

TGAAGTACGCGTGTGATCTGCTTT [ODN070]: the mTLR9 reporter activity was found to be 0.155.

Turning to TGACGTCGCGTGTCTTCGTTTGCT [ODN227], the mTLR9 reporter activity is 0.233.

Consider TGACGTGCAGTGTACTGACTCGTT [ODN107], for which the mTLR9 reporter activity was determined as 0.06.

TGACTCAAGTTGCTGTGTCGCGTT [ODN083] showed a mTLR9 reporter activity of 0.137.

TGAGCGCTAGTAGTATTGCGCGTT [ODN075] came in with a mTLR9 reporter activity of 0.155.

For the sequence TGAGCTCTGTCTTGAGCTGCGTTT [ODN066], the mTLR9 reporter activity came to 0.151.

For the sequence TGAGCTGCGTTTTTTTTGCAGCGT [ODN031], the mTLR9 reporter activity is 0.407.

TGAGTCGTTGTGTCGCGCGCGTGT [ODN153] showed a mTLR9 reporter activity of 0.415.

As for TGATTCTGTGTCGTCGTCGCGCGT [ODN260], the mTLR9 reporter activity came to 0.14.

TGCACAGTGTGTAGACGTGCTTTT [ODN099]: the mTLR9 reporter activity came to 0.09.

The sequence TGCACGAGTGTTTTGTTTTGCGCT [ODN046] registered a mTLR9 reporter activity of 0.209.

Consider TGCAGCGTCTCGCGCGTCGTCTTT [ODN234], for which the mTLR9 reporter activity amounted to 0.181.

TGCAGTGCGTGTTTTGCGTCTTTT [ODN012] had a mTLR9 reporter activity of 0.34.

As for TGCAGTGTAAGTTCGCGTGTACTT [ODN061], the mTLR9 reporter activity is 0.18.

With TGCAGTTTTGACGCTGCGTTTTGT [ODN037], the mTLR9 reporter activity amounted to 0.336.

With TGCGATTGTCGTCTTGTCGCGCGT [ODN178], the mTLR9 reporter activity is 0.096.

In the case of TGCGCATGTTTTGCGCGAGTTTTT [ODN011], the mTLR9 reporter activity worked out at 0.371.

TGCGCGCAGTCGTCTTTTGTCGTT [ODN203] yielded a mTLR9 reporter activity of 0.095.

Sequence TGCGCGCGTTTTGACTTGTTTCGT [ODN112] had a mTLR9 reporter activity of 0.209.

TGCGCGCTGTCTCGCGTGTGCGTT [ODN169]: the mTLR9 reporter activity was 0.091.

Sequence TGCGCGCTGTTGCTCTCGCGTGAT [ODN254] showed a mTLR9 reporter activity of 0.146.

Sequence TGCGCGCTTTGATGTTGTCGCGCT [ODN175] returned a mTLR9 reporter activity of 0.098.

Take TGCGCGTCGTCTATGTCGTTGCTT [ODN273]: the mTLR9 reporter activity is 0.125.

As for TGCGCGTCTGCGATTCGCTTCGTT [ODN133], the mTLR9 reporter activity was found to be 0.176.

For TGCGCGTCTGCGCTTGCTCACGTT [ODN139], the mTLR9 reporter activity turned out to be 0.145.

As for TGCGCGTCTGTCTCTCGCGTGAGT [ODN255], the mTLR9 reporter activity worked out at 0.141.

As to TGCGCGTTGCATATAGTGCGCGTT [ODN102], the mTLR9 reporter activity was found to be 0.09.

For TGCGCTCGATGTTCGCGTTTGTTT [ODN272], the mTLR9 reporter activity is 0.115.

TGCGTAGCTGCTCTGAGTGCGTTT [ODN081] displayed a mTLR9 reporter activity of 0.16.

The sequence TGCGTCGCTCGCTGTTCGTTAGCT [ODN229] came in with a mTLR9 reporter activity of 0.205.

TGCGTCTTTCGTGATTGCGCTCGT [ODN113] yielded a mTLR9 reporter activity of 0.152.

TGCGTGCGAGCTTTTTTTTGACGT [ODN058]: the mTLR9 reporter activity amounted to 0.143.

On to TGCGTGCGTCTAGTTGCAGCGCTT [ODN082], for which the mTLR9 reporter activity worked out at 0.139.

In the case of TGCGTGCTAATGCTGTGTACGCTT [ODN090], the mTLR9 reporter activity was found to be 0.12.

On to TGCGTTCGTCTTGCGCTCGTGACT [ODN193], for which the mTLR9 reporter activity was 0.17.

Sequence TGCGTTCGTGCGTCGCGTGTGAGT [ODN214] registered a mTLR9 reporter activity of 0.145.

For the sequence TGCGTTTTGCAGCGTTGCTTTTGT [ODN033], the mTLR9 reporter activity amounted to 0.317.

Turning to TGCTACGCGTGTCGCGAGCGCATT [ODN108], the mTLR9 reporter activity was determined as 0.075.

On to TGCTAGTGAAGTCGCGTTCTCGTT [ODN076], for which the mTLR9 reporter activity was 0.222.

As to TGCTCGCGACGTGTGTGTTTCGTT [ODN257], the mTLR9 reporter activity amounted to 0.151.

In the case of TGCTCGTCGTGTCGCTTCGTTTGT [ODN256], the mTLR9 reporter activity came out at 0.145.

Sequence TGCTCTCACTCGTGCGTCGTGCGT [ODN274] gave a mTLR9 reporter activity of 0.17.

As to TGCTCTCGAGCTGTCGTACGCGTT [ODN106], the mTLR9 reporter activity was 0.14.

In the case of TGCTCTGTTCGCGCGTCGCAGTGT [ODN258], the mTLR9 reporter activity came out at 0.136.

In turn, TGCTGTCGTGTTCGTGCTAGCTTT [ODN074] showed a mTLR9 reporter activity of 0.227.

As for TGCTTGCGTTGCGCTATTCGCGCT [ODN223], the mTLR9 reporter activity turned out to be 0.269.

Sequence TGTACTCAGAGCAGCGCTGCGTTT [ODN094] came in with a mTLR9 reporter activity of 0.115.

As for TGTACTCGTTGCGCGCTCGTTGCT [ODN204], the mTLR9 reporter activity amounted to 0.244.

The sequence TGTCGACTGCAAGATGTCGTCGTT [ODN089] gave a mTLR9 reporter activity of 0.176.

In turn, TGTCGAGAGCTAGTGTTCACGTTT [ODN096] registered a mTLR9 reporter activity of 0.12.

For TGTCGCAGTCTGACAGTGCTCGTT [ODN098], the mTLR9 reporter activity worked out at 0.115.

TGTCGCGCTCGTGCTCGCGTTTCT [ODN191] showed a mTLR9 reporter activity of 0.165.

TGTCGCGTGTGCGTAGCTGCACTT [ODN065] had a mTLR9 reporter activity of 0.261.

With TGTCGCGTTTCGTGTTCTTGCGTT [ODN264], the mTLR9 reporter activity came to 0.172.

For the sequence TGTCGCTTCTGCTAGCGTGTTGTT [ODN097], the mTLR9 reporter activity is 0.195.

Regarding TGTCGTCGCATCGCGCTGTGTTGT [ODN147], the mTLR9 reporter activity came out at 0.388.

TGTCGTCGCGTCTTGTTTGCGAGT [ODN263]: the mTLR9 reporter activity turned out to be 0.176.
